These results are taken from publication PMC8001101.

Chains of the proteins cited; added tags and fusions are not shown. Lines headed by an entry give the natural chain unless they say otherwise; changes in a name come on top.
UniProt P03129: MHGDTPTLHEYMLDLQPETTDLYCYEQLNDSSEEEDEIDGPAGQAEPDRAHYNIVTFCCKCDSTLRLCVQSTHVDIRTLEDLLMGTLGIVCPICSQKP
UniProt P06788: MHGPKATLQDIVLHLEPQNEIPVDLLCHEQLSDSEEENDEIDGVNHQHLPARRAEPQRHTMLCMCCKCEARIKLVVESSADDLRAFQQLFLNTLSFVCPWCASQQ
UniProt P14618: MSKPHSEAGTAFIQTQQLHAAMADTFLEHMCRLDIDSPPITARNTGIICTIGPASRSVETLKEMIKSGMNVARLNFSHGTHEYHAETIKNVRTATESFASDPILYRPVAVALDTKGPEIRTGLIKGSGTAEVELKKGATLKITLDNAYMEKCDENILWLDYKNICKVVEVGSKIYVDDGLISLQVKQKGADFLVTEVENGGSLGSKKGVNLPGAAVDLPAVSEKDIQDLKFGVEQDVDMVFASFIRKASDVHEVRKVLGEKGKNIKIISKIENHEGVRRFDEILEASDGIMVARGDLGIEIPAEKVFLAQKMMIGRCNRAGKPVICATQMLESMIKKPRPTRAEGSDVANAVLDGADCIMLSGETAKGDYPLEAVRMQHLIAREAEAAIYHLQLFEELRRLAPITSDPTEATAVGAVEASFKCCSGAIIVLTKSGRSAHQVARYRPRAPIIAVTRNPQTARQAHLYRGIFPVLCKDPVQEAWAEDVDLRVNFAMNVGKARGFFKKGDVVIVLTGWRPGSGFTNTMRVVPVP

For assay [1], the target named is HPV16 E7 oncoprotein, endogenous in SiHa cells (human papillomavirus 16 (endogenous in SiHa)) (UniProt P03129). The experiment in a line: co-IP.
The target in assay [2] is GST fused to HPV18 E7 (GST-18E7) (human papillomavirus 18) (UniProt P06788). Description: pull-down; only the target purified.
Assay [3] deals with T1, GST fused to HPV45 E7 (GST-45E7) (human papillomavirus 45) (UniProt P21736).
T1 sequence: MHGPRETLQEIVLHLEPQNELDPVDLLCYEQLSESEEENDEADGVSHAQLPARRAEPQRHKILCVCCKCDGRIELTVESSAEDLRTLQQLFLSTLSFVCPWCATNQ
Description: pull-down; only the target purified.

These are yes or no findings as the source states them, for the method shown. In cells and extracts the contact can be indirect. Some entries that bind do so weakly or less than the wild type. For part of these data: Where a sequence is shown, tags or fusion partners need not be part of it.

“Pyruvate kinase M2 (PKM2), endogenous in SiHa cells (from UniProt P14618-1 1-531) (enzyme)”: the binding entry in assay [1] is on record as “binds”.
For the substance “HA-tagged PKM2 (HA-PKM2) (from UniProt P14618 1-531) (enzyme)”, the binding result in assay [2] and in assay [3] was “binds” in each case.
